Reference: paper PMC7862700
Only a part is listed here, and it is no random draw. At the low end of the ranking, values are background and their order means little.

Target: T1, ETV3 (UniProt P41162-2)
T1 sequence: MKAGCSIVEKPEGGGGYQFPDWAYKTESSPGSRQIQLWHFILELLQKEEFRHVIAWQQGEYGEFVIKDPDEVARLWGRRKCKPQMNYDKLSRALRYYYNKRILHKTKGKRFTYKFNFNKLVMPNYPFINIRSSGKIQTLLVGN
Experiment: DAPPL (digital affinity profiling via proximity ligation, sequencing)
Conditions: 10 mM Tris-HCl pH 7.5, 50 mM NaCl, 1 mM DTT, 4% glycerol, room temperature, 30 min; GST-TFs on glutathione beads, 16-mer random dsDNA library, 0.1% …; high values mean tight binding; double strand, one strand shown; scale: fold enrichment (6-mer frequency, TF over GST control)

Row | Sequence | binding signal
1 | GTCCAC | 0.992
2 | TCGAAT | 0.997
3 | CTTACC | 1.22
4 | GAAGTT | 1.7
5 | TTCCTG | 2.66
6 | TGGAAA | 1.08
7 | GGGCCT | 1.21
8 | TCCTCT | 1.63
9 | CATACT | 1.36
10 | CTATTC | 1.33
11 | TAACTC | 1.25
12 | TAAACG | 1.15
13 | TAGGCT | 1.14
14 | TACCCA | 1.06
15 | GCGTTC | 1.11
16 | TCACTT | 1.55
17 | CGATTC | 1.23
18 | TGATGG | 1.2
19 | AACCAA | 1.18
20 | TGCGTA | 0.997

2 entries from above, reformatted.
Row	Sequence	binding signal
4	GAAGTT	1.7
5	TTCCTG	2.66

Additional results follow.

Row | Sequence | binding signal
21 | ATCACC | 1.12
22 | AGCAGC | 1.08
23 | TGTGAC | 1.17
24 | AATAAG | 1.29
25 | AATACA | 1.28
26 | TGTAGC | 1.22
27 | ATCATG | 1.19
28 | ATCTAG | 1.07
29 | TACTAG | 0.973
30 | CCTATT | 1.52
31 | CTCTTG | 1.35
32 | GATTCT | 1.28
33 | ATGTCT | 1.26
34 | CGAAAA | 0.957
35 | TAAAAT | 1.17
36 | TCTTAC | 1.27
37 | GATGAA | 1.11
38 | AGAAGC | 1.23
39 | TACCTC | 1.25
